# Test results published in the supplement of paper PMC8732350.
# Values joined by “and” are separate entries in the source; they are usually repeats but may differ in a detail not shown here. Equal entries are not always repeated. Structures can show the parent of a compound that is named as a salt. ± gives the standard deviation of the averaged measurements. Some of the results follow. This data set is noisy: repeats of one test often differ as much as different tests do.
# Tested on: A549
# Assay: surface PD-L1 immunofluorescence intensity relative to IFN-gamma-only control (ratio); higher = more PD-L1 expression
# Settings: 10 µM; exposure time 24 h; IFN-gamma 100 ng/mL
row,Compound,surface PD-L1 immunofluorescence intensity
1,Cc1cnc(NC(=O)C2=C(O)c3ccccc3S(=O)(=O)N2C)s1 [Meloxicam],0.959
2,CC(C)NCC(O)COc1ccc(CC(N)=O)cc1 (racemic) [(RS)-Atenolol],0.982
3,O=C(O)CCCc1ccccc1 [sodium 4-Phenylbutyrate],0.94
4,COc1cc(O)cc(O)c1C(=O)/C=C/c1ccccc1 [Cardamonin],1.12
5,N=C(N)SCCc1c[nH]cn1 [Imetit dihydrobromide],1.15
6,C[C@@H]1C[C@H]2[C@@H]3CCC4=CC(=O)C=C[C@]4(C)[C@@]3(F)[C@@H](O)C[C@]2(C)[C@@]1(O)C(=O)CO [Dexamethasone],0.805 ± 0.018
7,"c1ccc(CN2CCC3(CCc4ccccc43)CC2)cc1 [L-693,403 maleate]",1.04
8,O=C(O)COC(=O)Cc1ccccc1Nc1c(Cl)cccc1Cl [Aceclofenac],0.948
9,N=C(N)S/C=C\C(=O)O [ZAPA sulphate],1.11
10,Cc1nnc(NS(=O)(=O)c2ccc(N)cc2)s1 [Sulfamethizole],0.996
11,CN(C)c1ccc(/C=C2/C(=O)Nc3ccccc32)cc1,1.07
12,CCN1CCC[C@H]1CNC(=O)c1c(OC)ccc(Br)c1OC [Remoxipride Hydrochloride],1.01
13,CCN1CCC[C@H]1CNC(=O)c1c(OC)ccc(Br)c1OC [Remoxipride hydrochloride],1.07
14,CCN1CCN(c2cc3c(cc2F)c(=O)c(C(=O)O)cn3C2CC2)CC1 [Enrofloxacin],0.92
15,COc1ccccc1S(=O)(=O)Nc1ccc2c(c1)CN(C)C(=O)N2,0.93
16,CC1CC(OC(=O)C(O)c2ccccc2)CC(C)(C)N1C (stereo not drawn) [Eucatropine hydrochloride],0.966
17,NCCCC[C@H](N[C@@H](CCc1ccccc1)C(=O)O)C(=O)N1CCC[C@H]1C(=O)O [Lisinopril],0.94 ± 0.076
18,CC(C)(C)NC[C@H](O)COc1nsnc1N1CCOCC1 [(S)-Timolol maleate],1.11
19,CC(C)(C)NC[C@H](O)COc1nsnc1N1CCOCC1 [Timolol maleate salt],1.06
20,O=C(Nc1cccc2c(=O)cc(-c3nnn[nH]3)oc12)c1ccc(OCCCCc2ccccc2)cc1 [Pranlukast],0.919 ± 0.088
21,NC(=O)CC[C@@H](N)C(=O)O [D-glutamine],0.9
22,CC(C)[C@H]1C(=O)N[C@@H](CCCNC(=N)N)C(=O)NCC(=O)N[C@@H](CC(=O)O)C(=O)N[C@H](Cc2ccccc2)C(=O)N1C,1.08
23,CCOC(=O)OC(C)OC(=O)[C@@H]1N2C(=O)[C@@H](NC(=O)[C@H](N)c3ccccc3)[C@H]2SC1(C)C (stereo partly drawn) [Bacampicillin hydrochloride],1.01
24,CCOC(=O)[C@H](CCc1ccccc1)N[C@H]1CCc2ccccc2N(CC(=O)O)C1=O [Benazepril hydrochloride],1.07
25,CCOC(=O)[C@H](CCc1ccccc1)N[C@H]1CCc2ccccc2N(CC(=O)O)C1=O [Benazepril HCl],1.16
26,COC1=C(OC)C(=O)C(CCCCCCCCCCO)=C(C)C1=O [Idebenone],0.9667 ± 0.0042
27,CSc1nc(NC2CCCC2)c([N+](=O)[O-])c(NC2CCCC2)n1,1.03

# As entered above.
# surface PD-L1 immunofluorescence intensity with CCN1CCN(c2cc3c(cc2F)c(=O)c(C(=O)O)cn3C2CC2)CC1 [Enrofloxacin] is entered as 0.92
# surface PD-L1 immunofluorescence intensity with NC(=O)CC[C@@H](N)C(=O)O [D-glutamine] is entered as 0.9

# (list continues)

row,Compound,surface PD-L1 immunofluorescence intensity
1,CCOC(=O)c1ccc(OC(=O)CCCCCNC(=N)N)cc1 [Gabexate mesilate],1.06
2,CCOC(=O)c1ccc(OC(=O)CCCCCNC(=N)N)cc1 [Gabexate mesylate],0.897 ± 0.045
3,CC(C)(C)Cn1c(N)nc2ccc(-c3[nH]c(C(C)(C)C)nc3-c3ccc(F)cc3)nc21,0.957
4,CCCN[C@H]1CCc2nc(N)sc2C1 [Pramipexole],1.02
5,CNC(=O)c1cc2c(cn1)[nH]c1ccccc12,1.06
6,Cc1cc(=O)oc2cc(O)ccc12 [Hymecromone],0.945
7,CC(COc1ccccc1)N(CCCl)Cc1ccccc1 (stereo not drawn) [Phenoxybenzamine hydrochloride],0.957
8,CCCNC(C)C(=O)Nc1ccccc1C (stereo not drawn) [Prilocaine hydrochloride],0.925
9,COc1ccc(CN(CCN(C)C)c2ccccn2)cc1 [Pyrilamine maleate],0.97
10,COc1ccc(CN(CCN(C)C)c2ccccn2)cc1 [Mepyramine maleate],1.01
11,COc1cc(/C=C/C(=O)N2CCN(CC(=O)N3CCCC3)CC2)cc(OC)c1OC [Cinepazide maleate],1.03
12,O=C(Nc1ccc(OC(F)(F)F)cc1)c1sccc1NCc1ccnc2ccccc12,1.11
13,CC(=O)c1ccc(S(=O)(=O)NC(=O)NC2CCCCC2)cc1 [Acetohexamide],0.945
14,CCCCC[C@H](O)/C=C/[C@@H]1[C@@H](C/C=C\CCCC(=O)O)[C@@H](O)C[C@H]1O [Dinoprost trometamol],0.961
15,CNC(=O)CN(CCN(CCN(CC(=O)O)CC(=O)NC)CC(=O)O)CC(=O)O.O.[Gd] [Gadodiamide (Omniscan)],0.881
16,Cc1scc2c1N(C(=O)CN1CCN(C)CC1)c1ccccc1NC2=O [Telenzepine dihydrochloride],1.09 ± 0.12
17,Cn1c(=O)c2nc[nH]c2n(C)c1=O [Theophylline monohydrate],1.07
18,C=C1c2cccc(O)c2C(=O)C2=C(O)[C@]3(O)C(=O)C(C(N)=O)=C(O)[C@@H](N(C)C)[C@@H]3[C@@H](O)[C@H]12 [Methacycline hydrochloride],1.07
19,c1ccc(C2CN3CCSC3=N2)cc1 (stereo not drawn) [Tetramisole hydrochloride],0.992
20,c1ccc(C2CN3CCSC3=N2)cc1 (stereo not drawn) [Tetramisole HCl],0.925
21,C[C@@H](N)[C@H]1CC[C@H](C(=O)Nc2ccncc2)CC1,0.992 and 0.972
22,CCc1cc(C(C)=O)c(O)cc1OCCCCCC(C)(C)c1nn[nH]n1,1
23,O=C(Cn1ccnc1[N+](=O)[O-])NCCO [Etanidazole],1.07
24,O=c1cc(-c2ccc(O)cc2)oc2cc(O)cc(O)c12 [Apigenin],1.05 ± 0.11
25,CO[C@H]1/C=C/O[C@@]2(C)Oc3c(C)c(O)c4c(c3C2=O)C2=NC3(CCN(CC(C)C)CC3)NC2=C(NC(=O)/C(C)=C\C=C\[C@H](C)[C@H](O)[C@@H](C)[C@@H](O)[C@@H](C)[C@H](OC(C)=O)[C@@H]1C)C4=O [Rifabutin],1.07
26,CO[C@H]1/C=C/O[C@@]2(C)Oc3c(C)c(O)c4c(c3C2=O)C2=NC3(CCN(CC(C)C)CC3)NC2=C(NC(=O)/C(C)=C\C=C\[C@H](C)[C@H](O)[C@@H](C)[C@@H](O)[C@@H](C)[C@H](OC(C)=O)[C@@H]1C)C4=O [Rifabutin (Mycobutin)],1.11
